According to patent US20160053022A1 (PETER MACCALLUM CANCER INSTITUTE, published 2016):
No constants are given. Whether binding was seen depends on the method and setting. Binding seen in cells or lysates may run through a third protein. Some results given as binding are weak or reduced against the parent protein; the word gives no strength. For part of these data: Tags and fused reporters may be left off the sequences shown.

By UniProt entry, the sequences of proteins in these tests, tags left out. Residues count along the entry.
UniProt P27467, residues 19-352: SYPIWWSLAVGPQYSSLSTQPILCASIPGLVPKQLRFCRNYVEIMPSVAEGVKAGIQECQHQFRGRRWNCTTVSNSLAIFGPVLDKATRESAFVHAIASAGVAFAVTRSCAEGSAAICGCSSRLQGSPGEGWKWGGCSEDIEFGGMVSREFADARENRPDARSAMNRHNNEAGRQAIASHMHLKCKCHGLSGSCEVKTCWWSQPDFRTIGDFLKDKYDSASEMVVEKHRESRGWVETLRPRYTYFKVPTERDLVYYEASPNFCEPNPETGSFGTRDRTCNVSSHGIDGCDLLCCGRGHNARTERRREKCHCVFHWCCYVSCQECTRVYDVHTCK
UniProt P34925, residues 66-194: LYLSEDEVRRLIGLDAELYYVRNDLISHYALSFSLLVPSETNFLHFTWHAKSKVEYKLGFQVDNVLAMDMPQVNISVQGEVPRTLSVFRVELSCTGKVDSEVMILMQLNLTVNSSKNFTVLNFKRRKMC

Key:
Wnt1.Myc5 (mouse) [1] = molecular target: T1, Wnt1.Myc5 (mouse) (UniProt P04426); assay: co-immunoprecipitation, anti-FLAG pull-down of 1 µg hRYKWD.Fc from lysate of Wnt-transfected HEK293T cells, anti-Myc blot
T1 sequence (looked up): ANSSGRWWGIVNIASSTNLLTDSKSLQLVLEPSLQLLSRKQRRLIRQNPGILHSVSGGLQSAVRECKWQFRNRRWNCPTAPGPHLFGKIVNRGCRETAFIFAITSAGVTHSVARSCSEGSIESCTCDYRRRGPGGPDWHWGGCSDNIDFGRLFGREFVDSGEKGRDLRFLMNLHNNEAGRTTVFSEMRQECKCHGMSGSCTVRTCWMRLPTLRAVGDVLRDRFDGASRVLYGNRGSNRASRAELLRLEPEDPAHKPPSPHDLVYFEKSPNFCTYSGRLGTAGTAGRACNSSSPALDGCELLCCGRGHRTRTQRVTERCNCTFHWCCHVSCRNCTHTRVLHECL

Wnt3a.Myc5 (mouse) [2] = molecular target: Wnt3a.Myc5 (mouse) (UniProt P27467); assay: as above
Wnt5a.Myc5 (mouse) [3] = molecular target: T2, Wnt5a.Myc5 (mouse) (UniProt P22725); assay: as above
T2 sequence (looked up): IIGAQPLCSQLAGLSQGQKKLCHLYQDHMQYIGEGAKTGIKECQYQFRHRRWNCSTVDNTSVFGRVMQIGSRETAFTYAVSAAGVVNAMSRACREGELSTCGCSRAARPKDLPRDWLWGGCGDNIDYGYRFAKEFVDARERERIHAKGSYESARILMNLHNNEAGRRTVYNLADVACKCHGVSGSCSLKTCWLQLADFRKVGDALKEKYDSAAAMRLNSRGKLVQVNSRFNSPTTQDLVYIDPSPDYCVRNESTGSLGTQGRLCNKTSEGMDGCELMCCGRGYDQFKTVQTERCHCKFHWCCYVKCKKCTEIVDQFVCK

Wnt1.Myc5 (mouse) [4] = molecular target: T1, Wnt1.Myc5 (mouse); assay: co-immunoprecipitation: anti-FLAG IP of 1 µg hRYKWD.Fc with 200 µg lysate of transfected HEK293T cells, immunoblot anti-Myc
Wnt3a.Myc5 (mouse) [5] = molecular target: Wnt3a.Myc5 (mouse) (UniProt P27467); assay: as above
Wnt5a.Myc5 (mouse) [6] = molecular target: T2, Wnt5a.Myc5 (mouse); assay: as above

Measured: binding

hRYKWD.Fc (from UniProt P34925 66-194) (Fc fusion)
binds: Wnt1.Myc5 (mouse) [1] | Wnt3a.Myc5 (mouse) [2] | Wnt5a.Myc5 (mouse) [3] | Wnt1.Myc5 (mouse) [4] | Wnt3a.Myc5 (mouse) [5] | Wnt5a.Myc5 (mouse) [6]
